Measurements published in the supplement of paper PMC5662767.
Structures can show the parent of a compound that is named as a salt. This is one part of the list. Plates or batches differ in their baseline, so values are only roughly comparable.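 Smoothened with circularly permuted GFP in its cytoplasmic tail is carried by a clonal Drosophila S2 line; fluorescence appears when Hh-driven phosphorylation opens an inhibitory loop. Per-cell signal, read by flow cytometry, was scaled to Hh-stimulated untreated cells. Hits were consistent fluorescence-shifting groups of inhibitors sharing pathway targets, not single compounds.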

Test system: Drosophila S2 cl14 SmoIP sensor cells
Assay: normalized SmoIP GFP fluorescence (untreated unstimulated = 0%, untreated Hh-stimulated = 100%); higher = more Smo activation sensor fluorescence
Conditions: compound concentration: 15 uM, 24 h
[1] = stimulation: Hh conditioned medium (+Hh)
[2] = stimulation: mock conditioned medium (-Hh)

SMILES	normalized SmoIP GFP fluorescence [1] [%]	normalized SmoIP GFP fluorescence [2] [%]
C[C@](O)(COc1ccc(C#N)cc1)C(=O)Nc1ccc(C#N)c(C(F)(F)F)c1 [Ostarine]	162	52.9
Cc1cccc(Cc2c[nH]cn2)c1C [detomidine-hcl]	126	-9.04
O=C(NCC1CCOCC1)c1cnc(Nc2ccc(Cl)cc2Cl)nc1C(F)(F)F	98.6	17.7
COC[C@H]1OC(=O)c2coc3c2[C@@]1(C)C1=C(C3=O)[C@@H]2CCC(=O)[C@@]2(C)C[C@H]1OC(C)=O [wortmannin]	76.4	32.6
COC(=O)C1=CCCN(C)C1 [arecoline]	181	0.334
N#CC(C#N)=Cc1ccc(O)c(O)c1 [ag-18-tyrphostin-23]	94.6	40.5
CN1[C@@H]2CC(O)C[C@H]1[C@@H]1O[C@@H]12 (some centres not stated) [scopine]	122	-16.4
CCOc1ccccc1-n1c(C(C)N2CCN(C(=O)COc3ccc(Cl)cc3)CC2)nc2ccccc2c1=O (configuration not stated) [erastin]	221	69.3
COc1ccc(C(=O)N2CCCC2=O)cc1 [Aniracetam]	139	5.98
CC(=O)Nc1ccc(OC[C@](C)(O)C(=O)Nc2ccc([N+](=O)[O-])c(C(F)(F)F)c2)cc1 [Andarine]	147	31.3
CCN(CC)C(=O)c1ccc(C2=CC3(CCNCC3)Oc3cccc(O)c32)cc1	133	11.3
C=C1C[C@@H]2[C@H](CC[C@]3(C)C(=O)CC[C@@H]23)[C@@]2(C)C=CC(=O)C=C12 [Exemestane]	150	10.7
Cc1cccc(C(C)c2c[nH]cn2)c1C (configuration not stated) [medetomidine-hcl]	120	-0.151
O=C(O)CNC(=O)c1c(O)c2ccccc2n(Cc2ccccc2)c1=O	125	0.588
Fc1cc(F)c2c(c1)[C@H]1C=CC[C@H]1C(c1cccnc1)N2 (some centres not stated) [golgicide-a]	126	1.1
Cc1ccccc1-n1c(Cn2ncc3c(N)ncnc32)nc2cccc(C)c2c1=O	142	0.605

Filtered by structure: the compounds so far containing an NH in an aromatic ring
SMILES	normalized SmoIP GFP fluorescence [1] [%]	normalized SmoIP GFP fluorescence [2] [%]
Cc1cccc(Cc2c[nH]cn2)c1C [detomidine-hcl]	126	-9.04
Cc1cccc(C(C)c2c[nH]cn2)c1C (configuration not stated) [medetomidine-hcl]	120	-0.151
